One data set concerns the target MBD2(150-260) (human) (UniProt Q9UBB5). Briefly: fluorescence polarization. The settings on record: 150 mM NaCl; 5-methyl-C at position 9 of strand 1 (central CpG); complement mC at position 8 implied, not given; FP: 10 mM HEPES pH 7.5, 50 or 150 mM NaCl, 3 mM MgCl2, 0.1 mM EDTA, 1 mM DTT, 0.02% azide; temperature not stated; recombinant protein; residues 150-260; label: 3' FAM on reverse strand. Background: Polarisation of emitted light reports the rotation of a fluorescent probe.

The chains behind the UniProt entries cited, without tags or fusion partners. Residues count along the entry.
UniProt Q9UBB5, 150-260: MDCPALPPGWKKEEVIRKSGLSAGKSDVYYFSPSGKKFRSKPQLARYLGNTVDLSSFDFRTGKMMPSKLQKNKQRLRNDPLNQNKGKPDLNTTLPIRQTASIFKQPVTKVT
UniProt Q9UBB5, 150-214: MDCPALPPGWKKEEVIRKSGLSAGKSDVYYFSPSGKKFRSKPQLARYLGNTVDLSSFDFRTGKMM

The target of the next data set is MBD2MBD (human) (UniProt Q9UBB5). In words: fluorescence polarization. The note with it: 150 mM NaCl; 5-methyl-C at position 9 of strand 1 (central CpG); complement mC at position 8 implied, not given; FP: 10 mM HEPES pH 7.5, 50 or 150 mM NaCl, 3 mM MgCl2, 0.1 mM EDTA, 1 mM DTT, 0.02% azide; temperature not stated; recombinant protein; residues 150-214; label: 3' FAM on reverse strand.

Another data set addresses MBD2FLsc (human) (UniProt Q9UBB5). Briefly: NMR 15N-HSQC. The settings on record: 2H,13C,15N protein, thioredoxin removal not stated for this construct, 10% molar excess DNA; 5-methyl-C at position 9 of strand 1 (central CpG); complement mC at position 8 implied, not given; recombinant protein.

For at least one entry, the source does not settle the construct or the ends of the probe. For part of these data: Whether high values mean tight binding is not given here for every scale.

Regarding “GAGGCGCTCGGCGGCAG (double strand) [17 bp central mCpG, FP]”, the binding signal (fold affinity vs 50 mM NaCl) with MBD2(150-260) (human) and with MBD2MBD (human) was 0.1 throughout.

Turning to “GAGGCGCTCGGCGGCAG (double strand) [17 bp central mCpG, NMR]”, in the data set with MBD2FLsc (human), the binding result is “binds”.

The record behind these values is article PMC4381075.
